Record: PubChem BioAssay AID1159578 (Peter MacCallum Cancer Centre, 2015)
In all, the deposit lists about 18,000 reagents; this is a random part of them. Of all reagents, about 1,030 (5.7%) got an active call. 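Inactive calls also include pools with fewer than 3300 nuclei, whose migration was not assessed.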 The raw values are shown without normalisation.

Screen: 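siRNA pools altering how lymphatic endothelial cells close a scratch wound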 (primary screen)
Cell system: human lymphatic endothelial cells
Reagents: siRNA pool against human genes, 40 nM
Duration: 48 h after transfection
Measurement: 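Cells stained with dye and imaged after a scratch; covered wound area and nuclei counted, duplicates averaged, migration set against mock wells and turned into a robust z-score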
Reading the numbers: migration robust z-score: higher = faster migration into the scratch; migration relative to mock: higher = more scratch area covered than mock; nuclei per well: higher = more cells in the well
Active means: 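Migration changed when robust z exceeds 2 or falls below -2 and mean nuclei number is at least 3300; otherwise not called changed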
Meaning of the calls: active = migration changed; inactive = no migration change, or too few cells

target gene,migration robust z-score,migration class with cell-count check,migration relative to mock,"nuclei per well, duplicate mean",Outcome
LMO3,1.3,migration z between -2 and 2; enough cells,1.22,5854,inactive
TSLIG3A,1.56,migration z between -2 and 2; enough cells,1.29,6024,inactive
C3orf62,-0.9,migration z between -2 and 2; enough cells,0.64,3708,inactive
WRN,-0.52,migration z between -2 and 2; enough cells,0.7,5648,inactive
ZNF70,0.82,migration z between -2 and 2; enough cells,1.1,5874,inactive
SPIRE2,0.38,migration z between -2 and 2; enough cells,0.98,5248,inactive
HEXA,-0.36,migration z between -2 and 2; enough cells,0.74,5874,inactive
TOE1,-0.4,migration z between -2 and 2; enough cells,0.78,4753,inactive
PPFIBP1,-0.12,migration z between -2 and 2; enough cells,0.86,5455,inactive
HNRNPAB,1.36,migration z between -2 and 2; enough cells,1.23,5939,inactive
IGFBP7,-0.96,migration z between -2 and 2; enough cells,0.62,5369,inactive
H2BC11,-0.06,migration z between -2 and 2; enough cells,0.87,4690,inactive
XYLB,-0.24,migration z between -2 and 2; enough cells,0.76,6165,inactive
OSBPL3,-0.36,migration z between -2 and 2; enough cells,0.8,5496,inactive
CEP192,-0.68,migration z between -2 and 2; enough cells,0.71,5917,inactive
ZCCHC10,0.36,migration z between -2 and 2; enough cells,0.98,5834,inactive
CD180,-0.29,migration z between -2 and 2; enough cells,0.81,6820,inactive
MFSD12,-0.14,migration z between -2 and 2; enough cells,0.85,6280,inactive
ELOVL2,-0.5,migration z between -2 and 2; enough cells,0.76,6026,inactive
LRP2BP,-0.54,migration z between -2 and 2; enough cells,0.74,5264,inactive
TMEM174,-0.73,migration z between -2 and 2; enough cells,0.7,6922,inactive
SNX25,-0.9,migration z between -2 and 2; enough cells,0.66,4479,inactive
HSFX1,-1.83,migration z between -2 and 2; enough cells,0.41,3802,inactive
LIN37,-0.65,migration z between -2 and 2; enough cells,0.72,5027,inactive
ZMPSTE24,0.57,migration z between -2 and 2; enough cells,0.92,5604,inactive
CTDSP2,-1.27,migration z between -2 and 2; enough cells,0.56,5514,inactive
ANKRD49,-0.35,migration z between -2 and 2; enough cells,0.8,5380,inactive
C16orf82,1.04,migration z between -2 and 2; enough cells,1.16,5786,inactive
GAGE2E,0.72,migration z between -2 and 2; enough cells,1.07,5152,inactive
HMGB2,-0.09,migration z between -2 and 2; enough cells,0.86,4854,inactive
GRK7,-1.64,migration z between -2 and 2; enough cells,0.49,3875,inactive
NT5C1B,0.18,migration z between -2 and 2; enough cells,0.84,5354,inactive
C12orf42,-0.9,migration z between -2 and 2; enough cells,0.64,5248,inactive
ARL10,-0.08,migration z between -2 and 2; enough cells,0.86,5694,inactive
OTUD5,-0.36,migration z between -2 and 2; enough cells,0.79,5793,inactive
G6PC3,-1.25,migration z between -2 and 2; enough cells,0.56,5416,inactive
OR6X1,-1.21,migration z between -2 and 2; enough cells,0.57,5520,inactive
TDP1,-0.7,migration z between -2 and 2; enough cells,0.67,5132,inactive
EFR3A,-1.58,migration z between -2 and 2; enough cells,0.48,5793,inactive
GSE1,-0.14,migration z between -2 and 2; enough cells,0.84,4977,inactive
PI3,-1.56,migration z between -2 and 2; enough cells,0.48,4632,inactive
FGF19,0.2,migration z between -2 and 2; enough cells,0.84,6016,inactive
DDX23,0.68,migration z between -2 and 2; enough cells,0.94,5204,inactive
HAND2,-1.33,migration z between -2 and 2; enough cells,0.55,5554,inactive
LAMB4,-0.15,migration z between -2 and 2; enough cells,0.84,5933,inactive
CPEB1,-1.25,migration z between -2 and 2; enough cells,0.56,5963,inactive
LSM10,1.4,migration z between -2 and 2; enough cells,1.25,5271,inactive
FBXL6,0.67,migration z between -2 and 2; enough cells,0.94,5376,inactive
SUV39H1,-0.64,migration z between -2 and 2; enough cells,0.68,5789,inactive
MYOCD,0.02,migration z between -2 and 2; enough cells,0.81,6422,inactive
RHOJ,0.62,migration z between -2 and 2; enough cells,0.92,4476,inactive
ATP5F1D,-1.37,migration z between -2 and 2; enough cells,0.54,4574,inactive
TSNAXIP1,0.76,migration z between -2 and 2; enough cells,1.08,5392,inactive
LRCH3,0.4,migration z between -2 and 2; enough cells,0.99,5339,inactive
NOX4,1.12,migration z between -2 and 2; enough cells,1.02,7318,inactive
ZNF512,0.69,migration z between -2 and 2; enough cells,1.06,6028,inactive
GAS8-AS1,-0.58,migration z between -2 and 2; enough cells,0.73,5075,inactive
MCRIP2,0.26,migration z between -2 and 2; enough cells,0.95,5854,inactive
OFCC1,-2.12,migration z below -2; enough cells,0.34,4433,active
YBX1,0.16,migration z between -2 and 2; enough cells,0.84,4999,inactive
ABHD5,0.42,migration z between -2 and 2; enough cells,0.88,5400,inactive
G3BP2,0.86,migration z between -2 and 2; enough cells,0.97,6055,inactive
MOCS3,0.26,migration z between -2 and 2; enough cells,0.86,4582,inactive
P2RX4,-0.21,migration z between -2 and 2; enough cells,0.76,4501,inactive
CBFA2T2,0.32,migration z between -2 and 2; enough cells,0.86,6616,inactive
CEACAM5,2.7,migration z above 2; enough cells,1.58,5945,active
ZIM2,2.06,migration z above 2; enough cells,1.42,5860,active
ATP8B4,-0.1,migration z between -2 and 2; enough cells,0.78,5684,inactive
ARFIP1,-2.23,migration z below -2; enough cells,0.38,4043,active
MAP3K2,0.31,migration z between -2 and 2; enough cells,0.86,6476,inactive
KLF4,0.6,migration z between -2 and 2; enough cells,0.92,4966,inactive
TBX18,0.16,migration z between -2 and 2; enough cells,0.84,6639,inactive
EFHC1,0.84,migration z between -2 and 2; enough cells,1.1,5866,inactive
